These are yes or no findings as the source states them, for the method shown. Some binding calls cover weakened binding; strength is not graded here.
Biological target: recombinant human tryptase beta 1 tetramer (wild type, active) (human) (UniProt Q15661)
Assay: X-ray crystallography, 2.15 A; ternary complex isolated by SEC

Protein sequences, listed by entry. Tags and fused reporters are not part of them. Lines headed by an entry give the natural chain unless they say otherwise; changes in a name come on top.
UniProt Q15661: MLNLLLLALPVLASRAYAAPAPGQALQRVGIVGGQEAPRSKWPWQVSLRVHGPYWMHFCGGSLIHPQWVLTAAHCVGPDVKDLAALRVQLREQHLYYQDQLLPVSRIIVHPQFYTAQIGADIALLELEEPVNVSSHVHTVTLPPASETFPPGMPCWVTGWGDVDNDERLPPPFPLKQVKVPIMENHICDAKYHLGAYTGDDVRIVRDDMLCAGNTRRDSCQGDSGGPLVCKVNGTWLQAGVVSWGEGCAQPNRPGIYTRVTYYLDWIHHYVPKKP

binding: binds
B1: soybean trypsin inhibitor (STI) (protein, UniProt P01070 25-205, looked up)
chain: DFVLDNEGNPLENGGTYYILSDITAFGGIRAAPTGNERCPLTVVQSRNELDKGIGTIISSPYRIRFIAEGHPLSLKFDSFAVIMLCVGIPTEWSVVEDLPEGPAVKIGENKDAMDGWFRLERVSDDEFNNYKLVFCPQQAEDDKCGDIGISIDHDDGTRRLVVSKNKPLVVQFQKLDKESL

— US20180230233A1
